Experimental data as given in paper PMC11254415.
These are yes or no findings as the source states them, for the method shown. Binding seen in cells or lysates may run through a third protein. Some binding calls cover weakened binding; strength is not graded here. Sequences can lack the tags named with a protein.

Protein sequences, listed by entry. Tags and fused reporters are not part of them. Residues count along the entry.
UniProt P06756, residues 31-1048: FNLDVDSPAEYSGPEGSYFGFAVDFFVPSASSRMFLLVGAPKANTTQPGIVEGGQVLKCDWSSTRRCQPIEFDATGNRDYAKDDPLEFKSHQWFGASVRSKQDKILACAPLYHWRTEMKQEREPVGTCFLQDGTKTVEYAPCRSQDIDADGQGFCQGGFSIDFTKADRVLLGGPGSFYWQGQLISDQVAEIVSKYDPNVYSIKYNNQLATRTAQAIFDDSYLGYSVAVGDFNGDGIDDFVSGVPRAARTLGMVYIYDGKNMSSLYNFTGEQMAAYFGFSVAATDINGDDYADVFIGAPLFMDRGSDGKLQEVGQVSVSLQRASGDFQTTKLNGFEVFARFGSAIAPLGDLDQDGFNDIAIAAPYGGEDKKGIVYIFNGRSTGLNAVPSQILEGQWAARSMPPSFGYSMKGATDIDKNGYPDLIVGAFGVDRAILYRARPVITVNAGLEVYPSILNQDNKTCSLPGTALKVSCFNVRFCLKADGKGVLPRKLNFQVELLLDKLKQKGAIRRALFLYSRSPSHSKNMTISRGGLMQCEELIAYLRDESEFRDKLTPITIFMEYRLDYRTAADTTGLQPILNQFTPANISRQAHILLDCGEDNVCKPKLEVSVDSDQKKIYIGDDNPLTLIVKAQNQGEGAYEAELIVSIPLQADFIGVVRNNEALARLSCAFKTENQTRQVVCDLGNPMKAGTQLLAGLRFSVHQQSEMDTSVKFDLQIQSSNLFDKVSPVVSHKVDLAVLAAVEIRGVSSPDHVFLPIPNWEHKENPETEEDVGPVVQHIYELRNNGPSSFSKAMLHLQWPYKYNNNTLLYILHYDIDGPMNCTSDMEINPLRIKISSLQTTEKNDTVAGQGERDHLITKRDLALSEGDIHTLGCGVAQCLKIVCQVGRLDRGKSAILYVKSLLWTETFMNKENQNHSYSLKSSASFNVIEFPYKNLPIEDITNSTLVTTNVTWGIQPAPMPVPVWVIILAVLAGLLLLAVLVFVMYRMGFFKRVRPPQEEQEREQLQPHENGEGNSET

Target: T1, Flag-tagged ANGPTL4 (ANGPTL4-Flag) (human) (UniProt Q9BY76)
T1 sequence: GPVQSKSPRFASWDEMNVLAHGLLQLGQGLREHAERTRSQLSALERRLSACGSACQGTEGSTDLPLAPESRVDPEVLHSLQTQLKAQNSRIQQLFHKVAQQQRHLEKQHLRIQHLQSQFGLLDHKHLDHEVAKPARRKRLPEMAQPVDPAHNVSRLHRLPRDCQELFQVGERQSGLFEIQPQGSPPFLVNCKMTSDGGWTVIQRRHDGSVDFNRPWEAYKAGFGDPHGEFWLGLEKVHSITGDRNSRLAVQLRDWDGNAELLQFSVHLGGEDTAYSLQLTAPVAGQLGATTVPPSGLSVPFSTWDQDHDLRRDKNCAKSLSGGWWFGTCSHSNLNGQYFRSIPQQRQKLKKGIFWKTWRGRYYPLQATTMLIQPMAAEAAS
Test: co-IP; lysate of AGS cells expressing ANGPTL4-Flag, IP with anti-Flag Abs or control IgG at 4 °C overnight, protein A/G magnetic beads, Western blot for ITGAV

Substance: integrin αV (ITGAV) (from UniProt P06756 31-1048) (receptor)
- binding: binds
